Reference: the supplement of paper PMC10849652
The other results are listed elsewhere or left out. Residues, ends and D or L forms follow the SMILES beside them. *: point of attachment. Cbz = O=C(OCc1ccccc1)*

Sequences of proteins named here, by UniProt entry; tags and fusion partners are left off. A change or cut given only in a name is not applied to a line headed by its entry.
UniProt Q6P2I3: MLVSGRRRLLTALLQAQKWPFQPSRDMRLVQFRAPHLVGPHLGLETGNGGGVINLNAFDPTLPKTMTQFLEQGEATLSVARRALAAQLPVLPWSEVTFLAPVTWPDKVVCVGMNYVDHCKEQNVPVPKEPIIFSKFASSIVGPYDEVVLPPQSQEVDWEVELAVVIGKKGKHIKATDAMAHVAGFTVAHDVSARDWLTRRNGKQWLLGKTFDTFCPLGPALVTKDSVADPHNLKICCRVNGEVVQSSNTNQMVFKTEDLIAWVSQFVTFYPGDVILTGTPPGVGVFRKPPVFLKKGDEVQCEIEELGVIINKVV
UniProt O43909: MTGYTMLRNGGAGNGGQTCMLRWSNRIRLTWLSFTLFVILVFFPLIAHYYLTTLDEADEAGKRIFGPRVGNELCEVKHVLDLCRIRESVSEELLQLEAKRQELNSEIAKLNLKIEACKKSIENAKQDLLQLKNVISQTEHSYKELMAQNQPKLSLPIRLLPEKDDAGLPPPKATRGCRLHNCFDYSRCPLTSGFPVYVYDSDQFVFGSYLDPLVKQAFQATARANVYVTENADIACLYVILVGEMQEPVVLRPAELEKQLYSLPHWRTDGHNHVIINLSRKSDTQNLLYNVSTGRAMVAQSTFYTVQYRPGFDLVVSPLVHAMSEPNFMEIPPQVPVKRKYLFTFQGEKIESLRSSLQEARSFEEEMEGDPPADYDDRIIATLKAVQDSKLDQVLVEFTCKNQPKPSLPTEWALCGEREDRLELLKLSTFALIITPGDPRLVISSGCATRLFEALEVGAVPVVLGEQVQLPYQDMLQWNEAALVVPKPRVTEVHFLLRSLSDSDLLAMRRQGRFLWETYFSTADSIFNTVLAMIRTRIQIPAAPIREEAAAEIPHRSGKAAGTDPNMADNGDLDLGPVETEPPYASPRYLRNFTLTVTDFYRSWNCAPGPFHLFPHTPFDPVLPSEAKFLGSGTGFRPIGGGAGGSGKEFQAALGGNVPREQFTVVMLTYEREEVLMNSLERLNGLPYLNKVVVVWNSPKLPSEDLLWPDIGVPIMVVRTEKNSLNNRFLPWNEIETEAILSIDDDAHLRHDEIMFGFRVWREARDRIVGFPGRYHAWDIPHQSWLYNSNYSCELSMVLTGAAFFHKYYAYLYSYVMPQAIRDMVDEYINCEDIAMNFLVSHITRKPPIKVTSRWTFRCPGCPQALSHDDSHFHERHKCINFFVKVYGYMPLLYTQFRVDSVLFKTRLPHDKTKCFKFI
UniProt Q9BYI3: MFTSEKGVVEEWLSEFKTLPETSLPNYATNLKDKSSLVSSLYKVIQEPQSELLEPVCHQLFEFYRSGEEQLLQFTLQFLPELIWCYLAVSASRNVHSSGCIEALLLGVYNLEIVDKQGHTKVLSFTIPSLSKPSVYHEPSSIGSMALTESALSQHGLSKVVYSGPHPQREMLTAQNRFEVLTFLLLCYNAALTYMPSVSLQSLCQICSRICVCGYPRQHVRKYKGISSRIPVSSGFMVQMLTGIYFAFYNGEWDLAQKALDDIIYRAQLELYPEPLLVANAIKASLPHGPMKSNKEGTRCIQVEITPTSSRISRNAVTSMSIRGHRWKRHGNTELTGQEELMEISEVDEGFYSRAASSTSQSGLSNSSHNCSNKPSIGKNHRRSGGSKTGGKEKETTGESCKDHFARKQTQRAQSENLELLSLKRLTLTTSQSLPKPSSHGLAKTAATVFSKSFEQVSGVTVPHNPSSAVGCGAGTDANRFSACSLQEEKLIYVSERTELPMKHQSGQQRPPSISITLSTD
UniProt Q9NVH0: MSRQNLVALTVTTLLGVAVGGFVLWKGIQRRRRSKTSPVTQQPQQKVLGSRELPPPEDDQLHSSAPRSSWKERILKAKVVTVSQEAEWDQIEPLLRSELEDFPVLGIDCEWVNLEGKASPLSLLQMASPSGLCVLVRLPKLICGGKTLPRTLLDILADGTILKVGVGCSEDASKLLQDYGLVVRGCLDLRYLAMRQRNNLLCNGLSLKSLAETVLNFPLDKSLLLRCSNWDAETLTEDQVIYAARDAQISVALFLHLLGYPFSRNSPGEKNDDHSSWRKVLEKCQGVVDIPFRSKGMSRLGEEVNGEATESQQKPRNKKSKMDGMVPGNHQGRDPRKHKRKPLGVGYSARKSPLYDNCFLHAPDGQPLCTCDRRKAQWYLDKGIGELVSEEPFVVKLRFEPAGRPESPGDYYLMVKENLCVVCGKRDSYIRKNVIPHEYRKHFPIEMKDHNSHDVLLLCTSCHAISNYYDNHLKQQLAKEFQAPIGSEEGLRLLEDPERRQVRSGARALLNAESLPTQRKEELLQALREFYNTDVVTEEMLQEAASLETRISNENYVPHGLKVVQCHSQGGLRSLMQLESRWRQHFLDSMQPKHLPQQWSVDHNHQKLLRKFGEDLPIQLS
UniProt Q96RI0: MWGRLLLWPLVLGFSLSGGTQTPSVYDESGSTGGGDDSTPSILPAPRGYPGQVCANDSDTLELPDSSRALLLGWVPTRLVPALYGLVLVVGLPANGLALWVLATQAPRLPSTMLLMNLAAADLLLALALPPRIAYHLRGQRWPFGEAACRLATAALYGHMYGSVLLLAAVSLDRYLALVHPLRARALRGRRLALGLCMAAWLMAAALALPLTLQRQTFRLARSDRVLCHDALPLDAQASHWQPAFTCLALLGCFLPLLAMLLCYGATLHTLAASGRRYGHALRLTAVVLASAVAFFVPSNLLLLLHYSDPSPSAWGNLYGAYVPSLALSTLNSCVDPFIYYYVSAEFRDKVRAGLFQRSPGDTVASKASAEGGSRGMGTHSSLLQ
UniProt Q6P179: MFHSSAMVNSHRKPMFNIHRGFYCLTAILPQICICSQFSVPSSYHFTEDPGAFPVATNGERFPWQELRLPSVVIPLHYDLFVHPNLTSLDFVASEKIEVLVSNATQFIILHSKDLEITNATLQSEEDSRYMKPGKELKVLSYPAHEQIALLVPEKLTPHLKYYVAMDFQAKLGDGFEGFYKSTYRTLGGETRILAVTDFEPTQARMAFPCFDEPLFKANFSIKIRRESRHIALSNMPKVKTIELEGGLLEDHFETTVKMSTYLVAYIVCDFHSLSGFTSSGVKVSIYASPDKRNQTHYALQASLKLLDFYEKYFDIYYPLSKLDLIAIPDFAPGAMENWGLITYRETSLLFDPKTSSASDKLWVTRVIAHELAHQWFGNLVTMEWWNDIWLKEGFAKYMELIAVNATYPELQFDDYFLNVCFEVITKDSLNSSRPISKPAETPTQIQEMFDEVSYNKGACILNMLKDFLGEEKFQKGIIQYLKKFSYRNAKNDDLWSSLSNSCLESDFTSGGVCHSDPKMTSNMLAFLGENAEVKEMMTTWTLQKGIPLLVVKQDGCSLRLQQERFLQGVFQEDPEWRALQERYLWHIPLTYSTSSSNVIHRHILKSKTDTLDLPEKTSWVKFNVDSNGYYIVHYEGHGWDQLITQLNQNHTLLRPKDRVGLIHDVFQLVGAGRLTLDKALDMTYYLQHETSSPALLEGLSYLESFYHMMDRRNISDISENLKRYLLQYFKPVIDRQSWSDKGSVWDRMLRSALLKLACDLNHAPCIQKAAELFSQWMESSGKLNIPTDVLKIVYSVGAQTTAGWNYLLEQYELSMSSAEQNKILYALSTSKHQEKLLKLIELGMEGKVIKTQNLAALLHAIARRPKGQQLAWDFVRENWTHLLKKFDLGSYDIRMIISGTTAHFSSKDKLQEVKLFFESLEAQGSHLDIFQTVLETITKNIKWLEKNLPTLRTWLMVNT
UniProt Q8IWE2: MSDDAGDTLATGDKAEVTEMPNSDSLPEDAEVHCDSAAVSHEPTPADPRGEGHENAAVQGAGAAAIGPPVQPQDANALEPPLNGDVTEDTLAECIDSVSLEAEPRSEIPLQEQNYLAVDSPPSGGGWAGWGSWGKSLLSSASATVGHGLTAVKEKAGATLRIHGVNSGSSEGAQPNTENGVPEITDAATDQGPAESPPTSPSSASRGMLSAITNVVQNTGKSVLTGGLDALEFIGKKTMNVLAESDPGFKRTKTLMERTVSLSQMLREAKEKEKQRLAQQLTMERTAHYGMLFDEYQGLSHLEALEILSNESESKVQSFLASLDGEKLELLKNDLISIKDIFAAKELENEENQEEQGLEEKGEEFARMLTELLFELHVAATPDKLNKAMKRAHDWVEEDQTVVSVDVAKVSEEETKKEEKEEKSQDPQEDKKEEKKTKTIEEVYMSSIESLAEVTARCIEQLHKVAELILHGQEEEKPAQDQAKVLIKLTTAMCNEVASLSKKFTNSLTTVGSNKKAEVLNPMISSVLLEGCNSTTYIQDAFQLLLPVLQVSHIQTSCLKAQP
UniProt Q5VUB5: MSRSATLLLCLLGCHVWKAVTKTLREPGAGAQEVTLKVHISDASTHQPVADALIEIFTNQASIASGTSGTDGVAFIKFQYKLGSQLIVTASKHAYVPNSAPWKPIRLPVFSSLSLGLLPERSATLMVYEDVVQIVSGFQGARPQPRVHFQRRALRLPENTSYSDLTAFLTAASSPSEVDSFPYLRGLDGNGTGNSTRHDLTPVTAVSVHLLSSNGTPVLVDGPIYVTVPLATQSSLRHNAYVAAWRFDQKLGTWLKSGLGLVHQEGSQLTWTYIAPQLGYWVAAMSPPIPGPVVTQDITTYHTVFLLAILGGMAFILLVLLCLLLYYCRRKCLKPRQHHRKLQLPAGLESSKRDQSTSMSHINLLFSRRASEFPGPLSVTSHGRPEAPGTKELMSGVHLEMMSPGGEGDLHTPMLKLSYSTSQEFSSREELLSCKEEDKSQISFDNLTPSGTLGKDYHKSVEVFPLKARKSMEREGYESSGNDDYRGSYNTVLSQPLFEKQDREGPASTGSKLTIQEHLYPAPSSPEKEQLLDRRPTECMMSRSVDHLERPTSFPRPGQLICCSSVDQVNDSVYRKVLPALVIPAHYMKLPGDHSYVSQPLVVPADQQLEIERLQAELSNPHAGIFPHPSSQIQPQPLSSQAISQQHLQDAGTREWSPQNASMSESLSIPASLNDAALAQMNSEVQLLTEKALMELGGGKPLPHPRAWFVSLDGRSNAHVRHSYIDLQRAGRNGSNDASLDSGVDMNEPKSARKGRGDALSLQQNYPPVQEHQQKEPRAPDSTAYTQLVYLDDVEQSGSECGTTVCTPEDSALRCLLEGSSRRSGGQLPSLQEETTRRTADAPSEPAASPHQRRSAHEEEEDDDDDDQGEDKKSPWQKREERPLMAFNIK
UniProt Q8IV48: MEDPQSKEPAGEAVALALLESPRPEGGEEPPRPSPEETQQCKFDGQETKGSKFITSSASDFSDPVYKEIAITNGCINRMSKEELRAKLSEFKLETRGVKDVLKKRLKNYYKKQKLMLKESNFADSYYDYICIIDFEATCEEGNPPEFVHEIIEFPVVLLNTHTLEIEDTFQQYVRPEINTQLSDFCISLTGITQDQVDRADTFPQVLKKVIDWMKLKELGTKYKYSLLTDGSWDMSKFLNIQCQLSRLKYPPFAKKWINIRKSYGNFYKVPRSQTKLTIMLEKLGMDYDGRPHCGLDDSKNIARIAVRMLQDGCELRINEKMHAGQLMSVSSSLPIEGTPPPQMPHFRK
UniProt Q9H098: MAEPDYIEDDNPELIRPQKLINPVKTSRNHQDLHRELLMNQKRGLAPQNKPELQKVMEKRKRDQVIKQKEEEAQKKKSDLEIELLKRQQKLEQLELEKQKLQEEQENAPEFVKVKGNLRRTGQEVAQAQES
UniProt Q96PV7: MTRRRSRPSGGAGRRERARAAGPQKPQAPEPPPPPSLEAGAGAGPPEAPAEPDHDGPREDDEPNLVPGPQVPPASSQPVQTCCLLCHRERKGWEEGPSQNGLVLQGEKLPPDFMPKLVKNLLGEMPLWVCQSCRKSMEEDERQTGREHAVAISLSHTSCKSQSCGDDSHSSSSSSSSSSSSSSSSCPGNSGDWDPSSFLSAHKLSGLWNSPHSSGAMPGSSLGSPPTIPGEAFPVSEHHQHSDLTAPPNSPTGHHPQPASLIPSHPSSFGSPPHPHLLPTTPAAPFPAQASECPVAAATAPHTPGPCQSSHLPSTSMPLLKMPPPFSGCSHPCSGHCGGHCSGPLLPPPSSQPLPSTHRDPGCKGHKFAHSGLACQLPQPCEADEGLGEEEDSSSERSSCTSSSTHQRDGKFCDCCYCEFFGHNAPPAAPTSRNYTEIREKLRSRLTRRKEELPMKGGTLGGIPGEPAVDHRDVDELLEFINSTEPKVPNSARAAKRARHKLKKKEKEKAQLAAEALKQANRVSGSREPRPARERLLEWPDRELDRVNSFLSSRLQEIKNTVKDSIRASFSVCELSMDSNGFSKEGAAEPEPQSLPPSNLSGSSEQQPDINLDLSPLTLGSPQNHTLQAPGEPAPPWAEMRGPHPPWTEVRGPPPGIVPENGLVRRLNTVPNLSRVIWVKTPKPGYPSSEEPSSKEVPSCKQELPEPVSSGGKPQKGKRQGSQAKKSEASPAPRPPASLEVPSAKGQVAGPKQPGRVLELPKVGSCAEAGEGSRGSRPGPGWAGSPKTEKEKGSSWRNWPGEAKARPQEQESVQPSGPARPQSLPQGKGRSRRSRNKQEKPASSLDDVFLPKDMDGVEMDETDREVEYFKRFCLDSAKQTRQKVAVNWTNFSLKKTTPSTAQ

Experiments:
Assay in all cases: log2 fold change, soluble protein after heating vs DMSO (PISA); higher = thermal stabilisation; K562 cells, 10 uM, 30 min; active = over 0.2 and 3.5 SD of the protein, either way, in both replicates (recomputed)
erlotinib = compound: C#Cc1cccc(Nc2ncnc3cc(OCCOC)c(OCCOC)cc23)c1 [erlotinib]
Outline: (§1)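 Soluble protein was defined as the supernatant after 21,000xg for 90 min. It came from K562 cells at 2×10^6 cells/mL given 10 μM compound for 30 min, heated in aliquots for 3 min across 48°C-58°C, pooled, and extracted in PBS with 0.5% NP-40 at 4°C, and was quantified by TMTpro 16plex LC-MS/MS with equalised channel sums. Thermal stability against control samples, from duplicates, is reported as log2 fold change.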

[1] = compound: C/C(=N\NC(=O)C1=CC(=CC=C1)S(=O)(=O)N2CCOCC2)/C3=C(C=CC(=C3)Cl)O
Outline: as §1

[2] = compound: C1=CC(=C(C=C1Cl)C2=NC3=NC=CN=C3C(=N2)NC4=CC=NC=C4)F
Outline: as §1

[3] = compound: C1=CC(=CC=C1C2=NC3=C(N2)C=C(C=C3)C(=O)N)OC4=CC=C(C=C4)Cl
Outline: as §1

[4] = compound: C1=CC2=C(C=CC(=C2)/C=C\3/C(=O)NC(=NCC4=CC=CS4)S3)N=C1
Outline: as §1

[5] = compound: C1=CC2=NC=CN=C2C=C1/C=C/3\C(=O)NC(=O)S3
Outline: as §1

[6] = compound: C1=CC=C(C=C1)C2=NC(=C(N2)C3=CC=NC=C3)C4=CC(=C(C=C4)Cl)O
Outline: as §1

[7] = compound: C1=CC=C2C(=C1)C3=NNC4=CC=CC(=C43)C2=O
Outline: as §1

IRAK-1-4 Inhibitor I = compound: C1COCCN1CCN2C3=CC=CC=C3N=C2NC(=O)C4=CC(=CC=C4)[N+](=O)[O-] [IRAK-1-4 Inhibitor I]
Outline: as §1

ibrutinib = compound: C=CC(=O)N1CCC[C@@H](n2nc(-c3ccc(Oc4ccccc4)cc3)c3c(N)ncnc32)C1 [ibrutinib]
Outline: as §1

[8] = compound: CC(=O)c1cnc2ccc(-c3cc(Cl)c(O)c(Cl)c3)nc2c1N[C@H]1CC[C@H](CN(C)C)CC1
Outline: as §1

ralimetinib = compound: CC(C)(C)Cn1c(N)nc2ccc(-c3[nH]c(C(C)(C)C)nc3-c3ccc(F)cc3)nc21 [ralimetinib]
Outline: as §1

[9] = compound: CC(C)(O)CC(=O)NCCn1ccc2ncnc(Nc3ccc(Oc4cccc(C(F)(F)F)c4)c(Cl)c3)c21
Outline: as §1

[10] = compound: CC(C)C1=C2N=C(C=C(N2N=C1)NCC3=CC=CC=C3)NCCCCCCN
Outline: as §1

[11] = compound: CC(C)C[C@@H](C=O)NC(=O)[C@H](CC(C)C)NC(=O)[C@H](CC(C)C)NC(=O)OCc1ccccc1
Outline: as §1

pinometostat = compound: CC(C)N(C[C@H]1O[C@@H](n2cnc3c(N)ncnc32)[C@H](O)[C@@H]1O)[C@H]1C[C@@H](CCc2nc3cc(C(C)(C)C)ccc3[nH]2)C1 [pinometostat]
Outline: as §1

[12] = compound: CC1=C(C(CC(=O)N1)C2=CC=C(C=C2)C(F)(F)F)C(=O)NC3=C(C=C4C(=C3)C=NN4)F
Outline: as §1

[13] = compound: C1CCN(C1)C(=O)NC2=CC=CC(=C2)NC3=NC=C(C(=N3)NCCC4=CN=CN4)Br
Outline: as §1

[14] = compound: C1CN(CCC1(CC2=CC=C(C=C2)Cl)N)C3=NC=NC4=C3C=CN4
Outline: as §1

[15] = compound: CC1=C(C2=C(C=C1)C(=O)C3=CC=CC=C3N2CCCN)C
Outline: as §1

Measured: log2 fold change

FAHD2B (UniProt Q6P2I3)
inactive: erlotinib -0.02 | [1] 0.085 | [2] 0.131 | [3] 0.061 | [4] 0.078 | [5] -0.009 | [6] -0.005 | [7] -0.019 | IRAK-1-4 Inhibitor I 0.014 | ibrutinib 0.183 | [8] -0.047 | ralimetinib -0.064 | [9] -0.118 | [10] 0.169 | [11] -0.098 | pinometostat -0.015 | [12] -0.01

EXTL3 (UniProt O43909)
inactive: [1] -0.034 | [2] -0.301 | [4] 0.009 | [5] -0.104 | [6] 0.016 | [7] 0.016 | [13] -0.048 | [14] 0.049 | IRAK-1-4 Inhibitor I -0.034 | ibrutinib -0.26 | [8] -0.086 | ralimetinib 0.037 | [9] 0.052 | [11] 0.008 | pinometostat -0.07 | [12] -0.066 | [15] 0.181

ESPL1 (UniProt Q14674)
inactive: erlotinib 0.096 | [1] -0.026 | [2] -0.425 | [3] 0.108 | [4] -0.225 | [5] 0.03 | [6] -0.328 | [7] 0.182 | IRAK-1-4 Inhibitor I 0.061 | ibrutinib -0.055 | [8] -0.202 | ralimetinib -0.076 | [9] 0.114 | [10] 0.144 | [11] -0.007 | pinometostat 0.04 | [12] 0.039

FAM126A (UniProt Q9BYI3)
inactive: erlotinib 0.185 | [1] 0.006 | [2] -0.019 | [3] 0.133 | [4] 0.151 | [6] -0.008 | [7] 0.15 | [8] -0.076 | ralimetinib -0.029 | [9] -0.014 | [10] -0.108 | [11] 0.057

EXD2 (UniProt Q9NVH0)
inactive: erlotinib 0.013 | [2] -0.262 | [3] 0.021 | [6] 0.006 | IRAK-1-4 Inhibitor I -0.099 | ralimetinib 0.091 | [9] 0.164 | [10] -0.134 | [11] 0.127 | pinometostat 0.175

F2RL3 (UniProt Q96RI0)
inactive: erlotinib -0.056 | [1] 0.026 | [3] -0.083 | [4] 0.039 | [6] -0.052 | [7] -0.12 | [13] -0.161 | [14] 0.065 | [8] 0.02 | ralimetinib -0.084 | [10] 0.081 | [11] 0.021 | [15] 0.1

EPPK1 (UniProt P58107)
inactive: erlotinib -0.131 | [2] -0.365 | [3] -0.004 | [5] -0.099 | [6] -0.363 | [13] -0.16 | [14] -0.5 | IRAK-1-4 Inhibitor I -0.097 | ibrutinib -0.102 | ralimetinib 0.236 | [9] 0.085 | [10] -0.379 | [11] 0.079 | pinometostat 0.519 | [12] 0.077 | [15] 0.671

ERAP2 (UniProt Q6P179)
inactive: erlotinib 0.385 | [2] 0.01 | [3] 0.02 | [9] -0.015 | [10] -0.044 | [12] -0.095

FADS2 (UniProt O95864)
inactive: erlotinib -0.105 | [3] -0.086 | [10] 0.061

FAM114A1 (UniProt Q8IWE2)
inactive: erlotinib -0.025 | [2] 0.383 | [3] 0.006 | [6] -0.174 | [13] 0.073 | [14] 0.04 | IRAK-1-4 Inhibitor I 0.052 | ralimetinib 0.131 | [9] -0.076 | [10] 0.002 | [11] 0.282 | pinometostat -0.145 | [15] -0.094

FAM171A1 (UniProt Q5VUB5)
inactive: erlotinib -0.038 | [1] -0.112 | [2] -0.114 | [3] -0.04 | [4] 0.209 | [7] -0.394 | IRAK-1-4 Inhibitor I 0.021 | [8] 0.099 | [9] 0.046 | [10] 0.24 | pinometostat 0.002

FAM102B (UniProt Q5T8I3)
inactive: [2] 0.092 | [6] -0.036 | ralimetinib -0.037 | [9] 0.295 | [11] 0.031

ERI1 (UniProt Q8IV48)
inactive: [2] -0.179 | [6] 0.041 | [13] 0.013 | [14] -0.037 | IRAK-1-4 Inhibitor I -0.223 | ralimetinib 0.147 | [9] -0.045 | [11] 0.181 | pinometostat 0.231 | [15] -0.142

FAM107B isoform 2 (UniProt Q9H098)
inactive: [2] 0.108 | [9] -0.01

FAM193B (UniProt Q96PV7)
inactive: [1] -0.127 | [2] -0.311 | [4] -0.085 | [5] 0.068 | [7] -0.101 | [13] -0.133 | [14] -0.483 | IRAK-1-4 Inhibitor I -0.049 | ibrutinib -0.266 | [8] -0.03 | [9] -0.05 | pinometostat 0.112 | [15] -0.181

EPN1 isoform 3 (UniProt Q9Y6I3)
inactive: [5] 0 | ibrutinib 0.092

EVPL (UniProt Q92817)
inactive: [6] 0.113 | ralimetinib 0.266 | [11] -0.079 | [12] -0.052

Retrieved one by one from the entries so far (two):
FAM193B (UniProt Q96PV7)
inactive: [1] -0.127 | [2] -0.311 | [4] -0.085 | [5] 0.068 | [7] -0.101 | [13] -0.133 | [14] -0.483 | IRAK-1-4 Inhibitor I -0.049 | ibrutinib -0.266 | [8] -0.03 | [9] -0.05 | pinometostat 0.112 | [15] -0.181

FAM107B isoform 2 (UniProt Q9H098)
inactive: [2] 0.108 | [9] -0.01
